Laboratory results: the supplement of paper PMC10849652
The other results are listed elsewhere or left out.

The chains behind the UniProt entries cited, without tags or fusion partners. Where a name states a change or a piece, a line headed by the entry shows the natural chain unless it says otherwise.
UniProt Q96MF7: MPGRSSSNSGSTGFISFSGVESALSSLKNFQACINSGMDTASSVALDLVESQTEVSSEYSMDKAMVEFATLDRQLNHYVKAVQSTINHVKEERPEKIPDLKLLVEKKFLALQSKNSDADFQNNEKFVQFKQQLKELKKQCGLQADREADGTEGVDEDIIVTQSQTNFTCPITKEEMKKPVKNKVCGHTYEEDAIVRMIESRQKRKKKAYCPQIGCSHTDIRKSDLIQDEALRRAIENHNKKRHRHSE
UniProt Q96CB9: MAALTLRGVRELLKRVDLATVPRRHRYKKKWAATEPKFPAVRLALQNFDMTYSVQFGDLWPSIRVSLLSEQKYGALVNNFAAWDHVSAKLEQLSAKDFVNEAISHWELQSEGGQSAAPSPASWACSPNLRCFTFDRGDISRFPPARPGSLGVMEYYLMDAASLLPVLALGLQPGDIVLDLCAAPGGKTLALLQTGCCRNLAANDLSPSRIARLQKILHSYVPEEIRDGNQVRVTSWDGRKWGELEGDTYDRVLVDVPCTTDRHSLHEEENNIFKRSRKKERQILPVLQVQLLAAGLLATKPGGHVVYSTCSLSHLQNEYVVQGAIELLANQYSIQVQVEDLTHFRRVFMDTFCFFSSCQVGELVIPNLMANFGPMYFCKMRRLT
UniProt Q9NTK5, whole entry, looked up: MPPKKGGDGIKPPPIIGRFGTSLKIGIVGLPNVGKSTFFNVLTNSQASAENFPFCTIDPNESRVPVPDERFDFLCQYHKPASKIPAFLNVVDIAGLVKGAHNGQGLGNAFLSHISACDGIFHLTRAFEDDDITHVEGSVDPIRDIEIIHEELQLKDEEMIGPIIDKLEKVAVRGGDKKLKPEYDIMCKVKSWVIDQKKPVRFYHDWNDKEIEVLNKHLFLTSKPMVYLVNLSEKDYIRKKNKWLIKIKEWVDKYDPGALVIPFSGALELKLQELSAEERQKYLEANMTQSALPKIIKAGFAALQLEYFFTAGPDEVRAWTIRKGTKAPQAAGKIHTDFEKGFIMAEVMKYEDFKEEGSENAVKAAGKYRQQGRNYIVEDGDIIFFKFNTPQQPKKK
UniProt Q9BV86: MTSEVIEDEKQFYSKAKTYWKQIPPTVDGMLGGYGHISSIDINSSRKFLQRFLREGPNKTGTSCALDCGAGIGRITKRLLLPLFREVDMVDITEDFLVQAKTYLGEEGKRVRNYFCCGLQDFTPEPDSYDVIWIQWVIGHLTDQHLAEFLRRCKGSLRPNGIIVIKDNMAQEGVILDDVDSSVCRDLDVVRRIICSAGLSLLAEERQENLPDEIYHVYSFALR
UniProt Q8N543: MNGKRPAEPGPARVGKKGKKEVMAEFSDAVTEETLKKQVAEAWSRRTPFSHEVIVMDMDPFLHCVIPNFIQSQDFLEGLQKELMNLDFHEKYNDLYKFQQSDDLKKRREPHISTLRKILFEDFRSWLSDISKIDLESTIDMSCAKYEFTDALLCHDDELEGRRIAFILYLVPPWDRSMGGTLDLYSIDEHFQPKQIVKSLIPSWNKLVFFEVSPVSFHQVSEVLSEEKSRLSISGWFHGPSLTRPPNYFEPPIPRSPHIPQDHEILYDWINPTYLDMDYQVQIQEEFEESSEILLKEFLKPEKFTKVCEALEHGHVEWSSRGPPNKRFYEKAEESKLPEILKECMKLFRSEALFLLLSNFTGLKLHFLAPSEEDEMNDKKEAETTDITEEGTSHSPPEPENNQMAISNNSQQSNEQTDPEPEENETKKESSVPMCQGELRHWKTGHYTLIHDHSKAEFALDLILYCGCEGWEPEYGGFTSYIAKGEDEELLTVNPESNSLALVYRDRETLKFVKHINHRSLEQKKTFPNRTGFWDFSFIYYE
UniProt P13674: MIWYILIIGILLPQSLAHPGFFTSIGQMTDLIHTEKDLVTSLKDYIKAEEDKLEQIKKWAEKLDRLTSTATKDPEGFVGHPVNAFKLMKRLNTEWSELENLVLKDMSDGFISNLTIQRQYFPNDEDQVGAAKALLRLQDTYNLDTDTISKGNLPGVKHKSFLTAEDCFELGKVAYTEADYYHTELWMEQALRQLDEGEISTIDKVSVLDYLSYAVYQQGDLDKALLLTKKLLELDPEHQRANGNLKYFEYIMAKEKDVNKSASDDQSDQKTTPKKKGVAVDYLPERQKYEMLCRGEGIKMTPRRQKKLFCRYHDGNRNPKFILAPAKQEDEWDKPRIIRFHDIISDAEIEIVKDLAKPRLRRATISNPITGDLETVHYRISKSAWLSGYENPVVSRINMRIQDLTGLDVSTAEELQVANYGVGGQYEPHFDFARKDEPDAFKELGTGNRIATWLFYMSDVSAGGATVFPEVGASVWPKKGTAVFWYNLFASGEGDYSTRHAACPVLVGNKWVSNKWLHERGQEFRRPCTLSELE
UniProt Q9H4B0: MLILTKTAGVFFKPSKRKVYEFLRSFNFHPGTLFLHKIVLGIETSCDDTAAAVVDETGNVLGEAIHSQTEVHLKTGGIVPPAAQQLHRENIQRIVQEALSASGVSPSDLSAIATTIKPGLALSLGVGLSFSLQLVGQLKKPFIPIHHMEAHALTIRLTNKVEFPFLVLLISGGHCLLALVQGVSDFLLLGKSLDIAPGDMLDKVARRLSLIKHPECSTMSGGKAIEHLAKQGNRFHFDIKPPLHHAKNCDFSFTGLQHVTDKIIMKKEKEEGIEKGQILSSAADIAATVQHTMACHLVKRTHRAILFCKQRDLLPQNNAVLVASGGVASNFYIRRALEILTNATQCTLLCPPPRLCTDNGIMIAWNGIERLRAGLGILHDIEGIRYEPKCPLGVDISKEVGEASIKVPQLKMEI
UniProt P35658: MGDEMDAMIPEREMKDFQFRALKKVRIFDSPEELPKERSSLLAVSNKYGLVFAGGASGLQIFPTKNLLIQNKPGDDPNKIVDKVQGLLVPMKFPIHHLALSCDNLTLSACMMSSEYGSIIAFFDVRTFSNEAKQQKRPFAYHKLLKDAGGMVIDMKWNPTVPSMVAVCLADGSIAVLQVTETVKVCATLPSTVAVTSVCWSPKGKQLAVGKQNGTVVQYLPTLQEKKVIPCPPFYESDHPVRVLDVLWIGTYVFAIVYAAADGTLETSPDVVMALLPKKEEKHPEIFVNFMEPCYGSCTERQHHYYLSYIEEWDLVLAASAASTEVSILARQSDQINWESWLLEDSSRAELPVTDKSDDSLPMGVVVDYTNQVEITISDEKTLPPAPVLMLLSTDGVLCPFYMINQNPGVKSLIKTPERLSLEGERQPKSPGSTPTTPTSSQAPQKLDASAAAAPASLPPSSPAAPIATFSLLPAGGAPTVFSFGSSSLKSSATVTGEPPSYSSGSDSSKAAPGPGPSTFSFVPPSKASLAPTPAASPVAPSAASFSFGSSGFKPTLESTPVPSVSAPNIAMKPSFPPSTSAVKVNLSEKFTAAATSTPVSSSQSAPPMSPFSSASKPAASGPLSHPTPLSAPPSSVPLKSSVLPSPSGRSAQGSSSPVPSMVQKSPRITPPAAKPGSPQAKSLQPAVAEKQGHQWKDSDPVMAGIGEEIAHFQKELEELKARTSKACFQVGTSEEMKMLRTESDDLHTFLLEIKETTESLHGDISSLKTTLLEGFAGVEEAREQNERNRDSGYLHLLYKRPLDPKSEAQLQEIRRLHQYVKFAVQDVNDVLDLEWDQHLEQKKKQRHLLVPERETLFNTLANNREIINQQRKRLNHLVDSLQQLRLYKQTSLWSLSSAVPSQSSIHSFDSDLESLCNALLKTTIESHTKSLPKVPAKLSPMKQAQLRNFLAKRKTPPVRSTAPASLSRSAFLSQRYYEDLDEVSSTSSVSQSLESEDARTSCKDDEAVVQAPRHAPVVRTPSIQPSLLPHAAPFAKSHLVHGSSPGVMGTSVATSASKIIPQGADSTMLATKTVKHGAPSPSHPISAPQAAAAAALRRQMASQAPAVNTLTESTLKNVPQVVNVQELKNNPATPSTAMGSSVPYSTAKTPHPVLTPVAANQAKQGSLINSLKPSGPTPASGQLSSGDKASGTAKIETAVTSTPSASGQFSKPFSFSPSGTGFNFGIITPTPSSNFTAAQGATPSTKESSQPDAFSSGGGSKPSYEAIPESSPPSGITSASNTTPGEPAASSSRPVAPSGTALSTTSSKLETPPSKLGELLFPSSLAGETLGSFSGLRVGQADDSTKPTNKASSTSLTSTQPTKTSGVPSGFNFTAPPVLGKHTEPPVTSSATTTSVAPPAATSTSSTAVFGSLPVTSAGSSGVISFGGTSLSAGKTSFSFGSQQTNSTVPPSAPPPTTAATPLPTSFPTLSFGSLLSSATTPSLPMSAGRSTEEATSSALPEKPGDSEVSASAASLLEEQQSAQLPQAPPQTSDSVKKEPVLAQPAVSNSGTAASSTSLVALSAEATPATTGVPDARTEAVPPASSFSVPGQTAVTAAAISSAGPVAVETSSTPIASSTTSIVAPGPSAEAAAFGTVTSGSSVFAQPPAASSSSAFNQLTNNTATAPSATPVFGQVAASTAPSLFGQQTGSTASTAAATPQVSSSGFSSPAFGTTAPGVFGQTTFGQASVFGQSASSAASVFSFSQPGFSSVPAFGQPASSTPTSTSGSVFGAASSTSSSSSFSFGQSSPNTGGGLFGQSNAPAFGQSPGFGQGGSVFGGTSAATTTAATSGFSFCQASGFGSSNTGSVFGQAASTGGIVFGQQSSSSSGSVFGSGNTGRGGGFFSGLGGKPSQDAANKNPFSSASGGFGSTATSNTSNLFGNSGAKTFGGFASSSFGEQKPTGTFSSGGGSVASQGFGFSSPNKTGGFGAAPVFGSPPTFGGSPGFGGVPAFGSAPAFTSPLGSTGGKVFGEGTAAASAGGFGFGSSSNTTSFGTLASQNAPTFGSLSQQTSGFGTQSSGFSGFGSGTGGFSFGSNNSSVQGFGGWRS
UniProt Q8WV74: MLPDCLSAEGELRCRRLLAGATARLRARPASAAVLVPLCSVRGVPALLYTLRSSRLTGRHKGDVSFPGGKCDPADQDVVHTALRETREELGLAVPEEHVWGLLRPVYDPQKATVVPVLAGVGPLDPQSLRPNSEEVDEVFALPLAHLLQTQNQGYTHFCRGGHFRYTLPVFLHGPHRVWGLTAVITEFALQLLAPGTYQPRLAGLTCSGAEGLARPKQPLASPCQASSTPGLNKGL
UniProt O15504: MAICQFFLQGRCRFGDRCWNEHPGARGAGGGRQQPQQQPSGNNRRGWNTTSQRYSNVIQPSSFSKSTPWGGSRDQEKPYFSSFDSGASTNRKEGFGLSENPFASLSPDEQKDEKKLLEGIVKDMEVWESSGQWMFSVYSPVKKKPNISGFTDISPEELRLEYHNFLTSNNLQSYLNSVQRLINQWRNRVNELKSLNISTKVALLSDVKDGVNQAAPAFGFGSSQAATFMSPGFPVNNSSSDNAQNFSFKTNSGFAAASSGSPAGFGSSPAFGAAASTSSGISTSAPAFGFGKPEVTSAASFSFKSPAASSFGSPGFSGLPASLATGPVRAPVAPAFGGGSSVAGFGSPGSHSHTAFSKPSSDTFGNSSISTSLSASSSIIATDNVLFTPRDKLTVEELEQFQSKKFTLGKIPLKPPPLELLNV
UniProt P22059, whole entry, looked up: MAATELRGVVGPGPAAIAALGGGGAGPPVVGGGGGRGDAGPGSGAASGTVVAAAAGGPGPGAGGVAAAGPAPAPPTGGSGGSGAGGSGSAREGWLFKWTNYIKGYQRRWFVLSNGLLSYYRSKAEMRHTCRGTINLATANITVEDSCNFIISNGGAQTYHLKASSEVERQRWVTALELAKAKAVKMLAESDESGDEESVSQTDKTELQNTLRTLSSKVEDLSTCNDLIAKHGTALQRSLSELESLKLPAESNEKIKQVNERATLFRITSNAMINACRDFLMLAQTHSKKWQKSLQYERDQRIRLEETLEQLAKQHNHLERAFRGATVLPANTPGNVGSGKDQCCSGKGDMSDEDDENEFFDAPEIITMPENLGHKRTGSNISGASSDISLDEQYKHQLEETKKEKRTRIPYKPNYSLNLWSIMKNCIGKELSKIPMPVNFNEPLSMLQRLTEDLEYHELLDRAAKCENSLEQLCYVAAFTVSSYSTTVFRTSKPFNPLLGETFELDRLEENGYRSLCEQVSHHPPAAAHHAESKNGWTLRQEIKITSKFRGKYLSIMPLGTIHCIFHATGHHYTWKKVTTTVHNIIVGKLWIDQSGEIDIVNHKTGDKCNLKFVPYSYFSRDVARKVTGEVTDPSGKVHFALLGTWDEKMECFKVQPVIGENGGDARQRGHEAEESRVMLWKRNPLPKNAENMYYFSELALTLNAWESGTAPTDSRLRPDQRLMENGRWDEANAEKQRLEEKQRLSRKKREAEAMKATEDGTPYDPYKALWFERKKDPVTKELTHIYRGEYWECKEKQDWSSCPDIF

Legend:
Test in all cases: log2 fold change, soluble protein after heating vs DMSO (PISA); higher = thermal stabilisation; K562 cells, 10 uM, 30 min; active = over 0.2 and 3.5 SD of the protein, either way, in both replicates (recomputed)
saracatinib = compound: CN1CCN(CCOc2cc(OC3CCOCC3)c3c(Nc4c(Cl)ccc5c4OCO5)ncnc3c2)CC1 [saracatinib]
Procedure, shortened: (§1)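 Aliquots of K562 cells (2×10^6 cells/mL) treated with 10 μM compound for 30 min were heated for 3 min over 48°C-58°C. After pooling and extraction in PBS with 0.5% NP-40 at 4°C, soluble protein from a 21,000xg, 90 min spin was quantified by TMTpro 16plex LC-MS/MS with channel sums equalised. Thermal stability is expressed against control samples, from duplicates, as a log2 fold change.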

sotrastaurin = compound: CN1CCN(c2nc(C3=C(c4c[nH]c5ccccc45)C(=O)NC3=O)c3ccccc3n2)CC1 [sotrastaurin]
Procedure, shortened: as §1

alvocidib = compound: CN1CC[C@H](c2c(O)cc(O)c3c(=O)cc(-c4ccccc4Cl)oc23)[C@H](O)C1 [alvocidib]
Procedure, shortened: as §1

Tubastatin A = compound: CN1CCc2c(c3ccccc3n2Cc2ccc(C(=O)NO)cc2)C1 [Tubastatin A]
Procedure, shortened: as §1

[1] = compound: CNC(=O)C1=CC=CC=C1NC2=NC(=NC=C2Cl)NC3=C(C=C(C=C3)N4CCOCC4)OC
Procedure, shortened: as §1

defactinib = compound: CNC(=O)c1ccc(Nc2ncc(C(F)(F)F)c(NCc3nccnc3N(C)S(C)(=O)=O)n2)cc1 [defactinib]
Procedure, shortened: as §1

rucaparib = compound: CNCc1ccc(-c2[nH]c3cc(F)cc4c3c2CCNC4=O)cc1 [rucaparib]
Procedure, shortened: as §1

[2] = compound: CNc1nc(-c2ccc3c(N)n[nH]c3c2)cc(N2C[C@@H](C(=O)NC3CCCCC3)CC[C@H]2C)n1
Procedure, shortened: as §1

encorafenib = compound: COC(=O)N[C@@H](C)CNc1nccc(-c2cn(C(C)C)nc2-c2cc(Cl)cc(NS(C)(=O)=O)c2F)n1 [encorafenib]
Procedure, shortened: as §1

[3] = compound: COC(=O)[C@H](CCSC)NC(=O)C1=C(C=C(C=C1)NC[C@H](CS)N)C2=CC=CC=C2
Procedure, shortened: as §1

[4] = compound: COC1=CC=C(C=C1)CN2C=CC3=C2C=C(C=C3)C(=O)NO
Procedure, shortened: as §1

filanesib = compound: CON(C)C(=O)N1N=C(c2cc(F)ccc2F)S[C@@]1(CCCN)c1ccccc1 [filanesib]
Procedure, shortened: as §1

zotarolimus = compound: CO[C@H]1C[C@@H]2CC[C@@H](C)[C@@](O)(O2)C(=O)C(=O)N2CCCC[C@H]2C(=O)O[C@H]([C@H](C)C[C@@H]2CC[C@H](n3cnnn3)[C@H](OC)C2)CC(=O)[C@H](C)/C=C(\C)[C@@H](O)[C@@H](OC)C(=O)[C@H](C)C[C@H](C)/C=C/C=C/C=C/1C [zotarolimus]
Procedure, shortened: as §1

idasanutlin = compound: COc1cc(C(=O)O)ccc1NC(=O)[C@@H]1N[C@@H](CC(C)(C)C)[C@](C#N)(c2ccc(Cl)cc2F)[C@H]1c1cccc(Cl)c1F [idasanutlin]
Procedure, shortened: as §1

alisertib = compound: COc1cc(Nc2ncc3c(n2)-c2ccc(Cl)cc2C(c2c(F)cccc2OC)=NC3)ccc1C(=O)O [alisertib]
Procedure, shortened: as §1

[5] = compound: COc1cc2nc(-c3cc(F)ccc3O)nc(N[C@@H]3CNC[C@H]3C(C)(C)O)c2cc1OC
Procedure, shortened: as §1

gefitinib = compound: COc1cc2ncnc(Nc3ccc(F)c(Cl)c3)c2cc1OCCCN1CCOCC1 [gefitinib]
Procedure, shortened: as §1

[6] = compound: COc1cccc2cc(-c3nc([C@H]4CC[C@H](C(=O)O)CC4)n4ncnc(N)c34)[nH]c12
Procedure, shortened: as §1

lapatinib = compound: CS(=O)(=O)CCNCc1ccc(-c2ccc3ncnc(Nc4ccc(OCc5cccc(F)c5)c(Cl)c4)c3c2)o1 [lapatinib]
Procedure, shortened: as §1

pictilisib = compound: CS(=O)(=O)N1CCN(Cc2cc3nc(-c4cccc5[nH]ncc45)nc(N4CCOCC4)c3s2)CC1 [pictilisib]
Procedure, shortened: as §1

Measured: log2 fold change

NUP43 (UniProt Q8NFH3)
inactive: saracatinib 0.041 | sotrastaurin 0.005 | alvocidib -0.043 | Tubastatin A 0.036 | [1] -0.023 | defactinib -0.018 | rucaparib 0.004 | [2] -0.049 | encorafenib 0.008 | [3] 0.042 | [4] 0.06 | filanesib -0.024 | zotarolimus 0.045 | idasanutlin 0.003 | alisertib -0.148 | [5] -0.011 | gefitinib 0.015 | [6] 0.076 | lapatinib 0.021 | pictilisib 0.008

NSMCE2 (UniProt Q96MF7)
active: pictilisib -0.233
inactive: saracatinib -0.019 | sotrastaurin -0.095 | Tubastatin A 0 | [1] 0.031 | defactinib -0.06 | rucaparib 0.076 | [2] -0.076 | encorafenib -0.001 | [3] 0.025 | [4] -0.029 | filanesib 0.045 | zotarolimus 0.018 | idasanutlin 0.027 | alisertib -0.076 | [5] 0.018 | gefitinib -0.009 | [6] -0.018 | lapatinib 0.023

NT5C2 (UniProt P49902)
inactive: saracatinib 0.037 | sotrastaurin 0.037 | alvocidib -0.018 | Tubastatin A 0.01 | [1] -0.035 | defactinib -0.043 | rucaparib -0.076 | [2] -0.058 | encorafenib -0.007 | [3] -0.013 | [4] 0.059 | filanesib -0.018 | zotarolimus 0.011 | idasanutlin -0.025 | alisertib -0.115 | [5] 0.023 | gefitinib -0.001 | [6] 0.039 | lapatinib -0.055 | pictilisib 0.043

OCIAD1 (UniProt D6RDK6)
inactive: saracatinib 0 | sotrastaurin 0.055 | alvocidib 0.059 | Tubastatin A -0.051 | [1] -0.111 | defactinib 0.008 | rucaparib -0.311 | [2] -0.136 | encorafenib 0.121 | [3] 0.101 | [4] -0.322 | filanesib -0.072 | zotarolimus -0.132 | idasanutlin -0.034 | alisertib 0.17 | [5] 0 | [6] 0.189 | lapatinib -0.122 | pictilisib 0.071

NSUN4 (UniProt Q96CB9)
inactive: saracatinib -0.064 | sotrastaurin 0.055 | alvocidib -0.06 | Tubastatin A 0.005 | [1] -0.01 | defactinib 0.08 | rucaparib 0.177 | [2] 0.074 | encorafenib 0.051 | [3] -0.076 | [4] -0.212 | filanesib 0.109 | zotarolimus -0.033 | idasanutlin -0.026 | alisertib -0.125 | [5] 0.08 | gefitinib -0.065 | [6] 0.267 | lapatinib -0.036 | pictilisib 0.009

OLA1 (UniProt Q9NTK5)
inactive: saracatinib 0.012 | sotrastaurin 0.005 | alvocidib -0.027 | Tubastatin A 0.004 | [1] -0.032 | defactinib -0.027 | rucaparib -0.041 | [2] -0.026 | encorafenib 0.025 | [3] 0.006 | [4] 0.022 | filanesib -0.059 | zotarolimus 0.007 | idasanutlin -0.023 | alisertib -0.042 | [5] 0.003 | gefitinib -0.005 | [6] 0.021 | lapatinib 0.008 | pictilisib 0.03

NTMT1 (UniProt Q9BV86)
active: [4] -0.455
inactive: saracatinib -0.048 | sotrastaurin 0.055 | Tubastatin A -0.071 | [1] -0.032 | defactinib -0.081 | rucaparib 0.169 | [2] 0.184 | encorafenib 0.06 | [3] -0.157 | filanesib -0.055 | zotarolimus 0.091 | idasanutlin -0.121 | alisertib -0.043 | [5] 0.085 | gefitinib 0.062 | [6] -0.027 | lapatinib -0.001 | pictilisib 0.092

OPTN (UniProt Q96CV9)
inactive: saracatinib 0.119 | sotrastaurin -0.071 | alvocidib -0.054 | Tubastatin A 0.039 | [1] 0.007 | defactinib -0.04 | [2] -0.089 | [3] -0.12 | [4] -0.003 | filanesib 0.08 | zotarolimus 0.109 | idasanutlin 0.025 | alisertib 0.354 | [5] 0.022 | gefitinib -0.024 | [6] 0 | lapatinib 0.032 | pictilisib -0.032

OGFOD1 (UniProt Q8N543)
inactive: saracatinib 0.007 | sotrastaurin 0.024 | Tubastatin A -0.163 | [1] 0.012 | defactinib -0.027 | rucaparib -0.051 | [2] -0.028 | encorafenib -0.028 | [3] 0.041 | filanesib -0.05 | zotarolimus -0.02 | idasanutlin -0.038 | alisertib -0.021 | [5] 0.001 | gefitinib 0.015 | [6] 0.041 | lapatinib -0.034 | pictilisib 0.065
active: [4] -0.294

P4HA1 (UniProt P13674)
inactive: saracatinib -0.107 | sotrastaurin -0.043 | alvocidib 0.088 | Tubastatin A 0.021 | [1] 0.011 | defactinib 0.093 | rucaparib 0.04 | [2] 0.024 | encorafenib 0.113 | [3] -0.002 | [4] -0.044 | filanesib 0.096 | zotarolimus 0.026 | idasanutlin 0.049 | alisertib -0.114 | [5] -0.016 | gefitinib -0.025 | [6] -0.135 | lapatinib 0.081 | pictilisib -0.003

OSGEPL1 (UniProt Q9H4B0)
inactive: saracatinib 0.112 | sotrastaurin 0.022 | alvocidib -0.015 | [1] 0.089 | defactinib -0.258 | [2] 0.069 | [3] -0.254 | [4] -0.257 | filanesib 0.161 | zotarolimus -0.014 | idasanutlin -0.074 | [5] 0.272 | lapatinib 0.008 | pictilisib -0.009

Pulled one by one from the list above (2):
NTMT1 (UniProt Q9BV86)
active: [4] -0.455
inactive: saracatinib -0.048 | sotrastaurin 0.055 | Tubastatin A -0.071 | [1] -0.032 | defactinib -0.081 | rucaparib 0.169 | [2] 0.184 | encorafenib 0.06 | [3] -0.157 | filanesib -0.055 | zotarolimus 0.091 | idasanutlin -0.121 | alisertib -0.043 | [5] 0.085 | gefitinib 0.062 | [6] -0.027 | lapatinib -0.001 | pictilisib 0.092

P4HA1 (UniProt P13674)
inactive: saracatinib -0.107 | sotrastaurin -0.043 | alvocidib 0.088 | Tubastatin A 0.021 | [1] 0.011 | defactinib 0.093 | rucaparib 0.04 | [2] 0.024 | encorafenib 0.113 | [3] -0.002 | [4] -0.044 | filanesib 0.096 | zotarolimus 0.026 | idasanutlin 0.049 | alisertib -0.114 | [5] -0.016 | gefitinib -0.025 | [6] -0.135 | lapatinib 0.081 | pictilisib -0.003

(list continues)

NUP214 isoform 5 (UniProt P35658)
inactive: saracatinib -0.092 | sotrastaurin -0.154 | alvocidib 0.025 | Tubastatin A 0.063 | [1] 0.03 | defactinib 0 | rucaparib 0.24 | [2] 0.125 | encorafenib 0.159 | [3] -0.078 | [4] 0.002 | filanesib 0.181 | zotarolimus 0.084 | idasanutlin 0.082 | alisertib -0.037 | [5] 0.076 | gefitinib -0.009 | [6] -0.07 | lapatinib 0.043 | pictilisib -0.033

ORC4 (UniProt O43929)
inactive: saracatinib -0.039 | sotrastaurin -0.098 | alvocidib -0.095 | Tubastatin A 0.023 | [1] -0.083 | defactinib -0.107 | rucaparib 0.034 | [2] 0.034 | encorafenib 0.111 | [3] -0.003 | [4] 0.039 | filanesib -0.086 | zotarolimus 0.041 | idasanutlin -0.033 | alisertib 0.069 | [5] -0.058 | gefitinib -0.002 | [6] 0.029 | lapatinib -0.01 | pictilisib 0.02

NUDT8 (UniProt Q8WV74)
inactive: saracatinib 0.139 | sotrastaurin 0.078 | alvocidib -0.086 | Tubastatin A 0.07 | [1] -0.014 | defactinib 0.031 | rucaparib -0.101 | [2] 0.003 | encorafenib 0.354 | [3] 0.071 | [4] 0.011 | filanesib -0.21 | zotarolimus -0.008 | alisertib 0.12 | [5] 0.017 | gefitinib 0.013 | [6] 0.02 | lapatinib -0.037

NUP42 (UniProt O15504)
inactive: saracatinib -0.064 | sotrastaurin 0.007 | alvocidib 0.221 | Tubastatin A 0.036 | [1] 0.098 | rucaparib 0.398 | [2] 0.07 | encorafenib 0.257 | [4] -0.026 | filanesib 0.381 | zotarolimus 0.025 | idasanutlin 0.239 | alisertib 0.025 | [5] 0.041 | gefitinib -0.032 | [6] 0.149 | lapatinib 0.127 | pictilisib -0.064

OSBP (UniProt P22059)
inactive: saracatinib -0.051 | sotrastaurin -0.147 | Tubastatin A 0.037 | [1] 0.062 | defactinib -0.066 | rucaparib -0.11 | [2] 0.062 | encorafenib -0.006 | [3] -0.001 | [4] -0.018 | filanesib 0.009 | zotarolimus 0.007 | idasanutlin -0.019 | alisertib -0.046 | [5] 0.086 | gefitinib 0.019 | [6] -0.009 | lapatinib 0 | pictilisib 0.004

OS9 (UniProt Q13438)
inactive: saracatinib -0.077 | sotrastaurin -0.029 | alvocidib 0.024 | Tubastatin A 0.069 | [1] 0.009 | defactinib 0.035 | rucaparib 0.027 | [2] -0.022 | encorafenib 0.013 | [3] -0.011 | [4] -0.039 | filanesib 0.014 | zotarolimus -0.009 | idasanutlin 0.1 | alisertib -0.047 | [5] -0.014 | gefitinib 0.015 | [6] -0.001 | lapatinib 0.034 | pictilisib 0.045
